PubChem BioAssay AID686943, Drosophila RNAi Screening Center, 2013

Screen: 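Search across the genome for regulators of signalling from receptor tyrosine kinase to ERK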 (primary screen)
Cell system: Drosophila S2R+ haemocyte-like cells expressing YFP-tagged ERK (Rolled)
Knock-down reagent: long dsRNA against Drosophila genes
Treatment: insulin stimulation versus unstimulated cells; dose and duration not given
Detection: 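Antibody staining for doubly phosphorylated ERK divided by ERK-YFP signal, as plate z-scores, in insulin-treated and untreated cells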
Direction: replicate 1, z-score of dpERK with insulin: higher = more active ERK per ERK-YFP after insulin
The deposit covers about 23,000 reagents; below is an unselected part of those that have a named target and a result. 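Extra replicates exist only for a retested subset of genes; insulin dose and duration not given; both raised and lowered dpERK matter.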 Not all columns of the deposit are shown. Not given: the amount of reagent, the time to read-out.

| replicate 1, z-score of dpERK with insulin | gene knocked down | DRSC id |
| --- | --- | --- |
| -0.46 | CG7011 | DRSC09347 |
| -0.99 | CG18262 | DRSC18149 |
| -0.52 | smash (smallish) | DRSC12139 |
| 0.15 | smash (smallish) | DRSC12141 |
| -1.35 | smash (smallish) | DRSC12239 |
| 0.77 | smash (smallish) | DRSC12289 |
| 1.27 | CG42383 | DRSC21733 |

Records above whose target name starts with C or c (3):
| replicate 1, z-score of dpERK with insulin | gene knocked down | DRSC id |
| --- | --- | --- |
| -0.46 | CG7011 | DRSC09347 |
| -0.99 | CG18262 | DRSC18149 |
| 1.27 | CG42383 | DRSC21733 |

The list goes on:
| replicate 1, z-score of dpERK with insulin | gene knocked down | DRSC id |
| --- | --- | --- |
| 0.17 | Ir75a (Ionotropic receptor 75a) | DRSC10188 |
| -0.09 | CG15739 | DRSC19705 |
| 0.79 | CG2533 | DRSC19855 |
| 1.66 | usp (ultraspiracle) | DRSC18847 |
| -0.86 | RpS17 (Ribosomal protein S17) | DRSC11271 |
| -0.25 | spn-B (spindle B) | DRSC17063 |
| -7.23 | Proc (Proctolin) | DRSC03009 |
| -1.11 | RpS23 (Ribosomal protein S23) | DRSC07169 |
| -0.2 | Vps13 (Vacuolar protein sorting 13) | DRSC06817 |
| 0.19 | c-cup (calcutta cup) | DRSC00458 |
| 0.54 | CG15710 | DRSC06581 |
| 0.32 | Dpy-30L1 (Dpy-30-like 1) | DRSC02959 |
| -1.18 | CG15563 | DRSC15101 |
| 0.66 | Dhdds (Dehydrodolichyl diphosphate synthase subunit) | DRSC17756 |
| 0.03 | zda (zonda) | DRSC06936 |
| -0.07 | eIF4E5 (eukaryotic translation initiation factor 4E5) | DRSC10975 |
